Results are given in words; binding and its absence hold for the method and conditions named. Some results given as binding are weak or reduced against the parent protein; the word gives no strength.
Biological target: Human PINK1 (residues 104–581, F104M) with a C-terminal His8 tag (human) (UniProt Q9BXM7)
Test: cryo-EM structure

Chains of the proteins cited; added tags and fusions are not shown. Lines headed by an entry give the natural chain unless they say otherwise; changes in a name come on top. Residues count along the entry.
UniProt P08238, 3-724: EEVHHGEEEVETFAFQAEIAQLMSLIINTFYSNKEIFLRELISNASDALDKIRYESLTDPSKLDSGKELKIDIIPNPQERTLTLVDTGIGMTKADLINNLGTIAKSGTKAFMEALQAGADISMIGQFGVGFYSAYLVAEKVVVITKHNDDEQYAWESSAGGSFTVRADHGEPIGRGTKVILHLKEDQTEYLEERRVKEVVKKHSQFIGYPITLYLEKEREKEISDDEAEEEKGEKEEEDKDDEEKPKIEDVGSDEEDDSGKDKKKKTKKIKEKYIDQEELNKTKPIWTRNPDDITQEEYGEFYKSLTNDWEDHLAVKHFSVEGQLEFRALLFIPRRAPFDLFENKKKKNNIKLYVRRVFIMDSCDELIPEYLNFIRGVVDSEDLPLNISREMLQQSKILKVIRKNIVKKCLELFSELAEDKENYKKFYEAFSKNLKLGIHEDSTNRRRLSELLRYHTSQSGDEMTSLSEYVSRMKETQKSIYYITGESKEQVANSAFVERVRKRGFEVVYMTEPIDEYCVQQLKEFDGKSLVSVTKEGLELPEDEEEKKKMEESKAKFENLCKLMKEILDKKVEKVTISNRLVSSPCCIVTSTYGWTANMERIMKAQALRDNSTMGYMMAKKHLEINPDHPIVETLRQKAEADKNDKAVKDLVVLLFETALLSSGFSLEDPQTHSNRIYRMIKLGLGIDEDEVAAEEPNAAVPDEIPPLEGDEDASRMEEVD

- binding: binds
Substance: Human HSP90β (from UniProt P08238 3-724)

— publication doi:10.1101/2025.10.17.682828
